Results are given in words; binding and its absence hold for the method and conditions named. Binding seen in cells or lysates may run through a third protein. Some entries that bind do so weakly or less than the wild type.

Amino acid sequences for entries named in this document (tags omitted).
UniProt Q9BQQ3: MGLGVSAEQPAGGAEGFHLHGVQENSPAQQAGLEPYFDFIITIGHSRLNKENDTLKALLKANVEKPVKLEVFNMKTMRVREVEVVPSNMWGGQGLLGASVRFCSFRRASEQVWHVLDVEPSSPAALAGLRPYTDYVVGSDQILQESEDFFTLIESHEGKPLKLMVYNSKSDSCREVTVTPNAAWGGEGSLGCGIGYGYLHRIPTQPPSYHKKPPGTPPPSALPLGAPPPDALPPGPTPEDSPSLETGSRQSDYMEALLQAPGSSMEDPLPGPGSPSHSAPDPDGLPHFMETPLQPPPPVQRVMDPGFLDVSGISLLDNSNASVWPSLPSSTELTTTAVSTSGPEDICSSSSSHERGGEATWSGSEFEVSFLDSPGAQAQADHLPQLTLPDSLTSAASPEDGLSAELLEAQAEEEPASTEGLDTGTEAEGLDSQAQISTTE

In this assay the target is GRASP65 (UniProt Q9BQQ3). Nature of the assay: co-IP.

B1: GM130 (protein, UniProt Q08379 1-1002)
chain: MWPQPRLPPRPAMSEETRQSKLAAAKKKLREYQQRNSPGVPTGAKKKKKIKNGSNPETTTSGGCHSPEDTPKDNAATLQPSDDTVLPGGVPSPGASLTSMAASQNHDADNVPNLMDETKTFSSTESLRQLSQQLNGLVCESATCVNGEGPASSANLKDLESRYQQLAVALDSSYVTNKQLNITIEKLKQQNQEITDQLEEEKKECHQKQGALREQLQVHIQTIGILVSEKAELQTALAHTQHAARQKEGESEDLASRLQYSRRRVGELERALSAVSTQQKKADRYNKELTKERDALRLELYKNTQSNEDLKQEKSELEEKLRVLVTEKAGMQLNLEELQKKLEMTELLLQQFSSRCEAPDANQQLQQAMEERAQLEAHLGQVMESVRQLQMERDKYAENLKGESAMWRQRMQQMSEQVHTLREEKECSMSRVQELETSLAELRNQMAEPPPPEPPAGPSEVEQQLQAEAEHLRKELEGLAGQLQAQVQDNEGLSRLNREQEERLLELERAAELWGEQAEARRQILETMQNDRTTISRALSQNRELKEQLAELQSGFVKLTNENMEITSALQSEQHVKRELGKKLGELQEKLSELKETVELKSQEAQSLQQQRDQYLGHLQQYVAAYQQLTSEKEVLHNQLLLQTQLVDQLQQQEAQGKAVAEMARQELQETQERLEAATQQNQQLRAQLSLMAHPGEGDGLDREEEEDEEEEEEEAVAVPQPMPSIPEDLESREAMVAFFNSAVASAEEEQARLRGQLKEQRVRCRRLAHLLASAQKEPEAAAPAPGTGGDSVCGETHRALQGAMEKLQSRFMELMQEKADLKERVEELEHRCIQLSGETDTIGEYIALYQSQRAVLKERHREKEEYISRLAQDKEEMKVKLLELQELVLRLVGDRNEWHGRFLAAAQNPADEPTSGAPAPQELGAANQQGDLCEVSLAGSVEPAQGEAREGSPRDNPTAQQIMQLLREMQNPRERPGLGSNPCIPFFYRADENDEVKITVI
As for B1, the binding result is reported as “binds”.

B2: p23/TMED10 (protein, UniProt P49755 32-219)
chain: ISFHLPINSRKCLREEIHKDLLVTGAYEISDQSGGAGGLRSHLKITDSAGHILYSKEDATKGKFAFTTEDYDMFEVCFESKGTGRIPDQLVILDMKHGVEAKNYEEIAKVEKLKPLEVELRRLEDLSESIVNDFAYMKKREEEMRDTNESTNTRVLYFSIFSMFCLIGLATWQVFYLRRFFKAKKLIE
As to B2, the binding result is “no binding”.

These data come from article doi:10.1101/2021.10.05.463252.
